Test results: PubChem BioAssay AID248 (DTP/NCI, 2004)
The list does not hold the whole screen: it is rich in T/C values a quarter to a half above the control, in often repeated tests (any T/C) and in doses without a T/C. Other doses and runs of a compound stand elsewhere. T/C gives the treated animals as a percentage of the vehicle group. Some doses have a count of surviving animals in place of a T/C: the source files T/C as zero there, which appears to mark a toxic dose or a test without result, not a measured value. Some doses without a T/C left all or most animals alive at the check, yet need not have been tolerated: the source hardly ever lists a survival T/C far under the control, and the zero likely stands for such cases as well. Counts of survivors are from the toxicity check (mostly the fifth day) where no day follows; animals may have died later. Schedule codes are those of the source, read here as Q, the interval in days (D) or hours (H), X, the number of doses. Some doses were run more than once; their values stand side by side, smallest first. Some schedule codes hold Z or #, which are not explained here. For survival time, the PubChem record calls one and a half times the control and up active, and a quarter to a half above the control has no call in these data; cut-offs in other NCI protocols can differ. Some T/C values carry the count of animals alive at the toxicity check (mostly the fifth day); without a count, all were alive then.

Tested on: L1210 leukemia ip in BDF1 mice, survival T/C
Test: NCI In Vivo Anticancer Drug Screen. Data for tumor model L1210 Leukemia (intraperitoneal) in B6D2F1 (BDF1) mice
Details: higher T/C = longer survival
[1] = T/C endpoint: mean survival time, dose: 200.0 mg/kg/injection, schedule: Q04DX003 (ip), vehicle: saline with Tween-80
[2] = T/C endpoint: mean survival time, dose: 400.0 mg/kg/injection, schedule: Q04DX003 (ip), vehicle: saline with Tween-80
[3] = T/C endpoint: mean survival time, dose: 200.0 mg/kg/injection, schedule: Q01DX009 (ip), vehicle: Klucel (hydroxypropylcellulose) (HPC)
[4] = T/C endpoint: mean survival time, dose: 400.0 mg/kg/injection, schedule: Q01DX009 (ip), vehicle: Klucel (hydroxypropylcellulose) (HPC)
[5] = T/C endpoint: mean survival time, dose: 400.0 mg/kg/injection, schedule: Q01DX009 (ip), vehicle: saline with Tween-80
[6] = T/C endpoint: mean survival time, dose: 300.0 mg/kg/injection, schedule: Q01DX001 (ip), vehicle: saline

CN(C)C(=O)c1ccc(NC(=O)N(CCCl)N=O)cc1
T/C (T/C endpoint: mean survival time, dose: 4.0 mg/kg/injection, schedule: Q01DX001 (ip), vehicle: other): 136 % of control
survivor count (T/C endpoint: mean survival time, dose: 62.0 mg/kg/injection, schedule: Q01DX001 (ip), vehicle: other): 6 of 6
survivor count (T/C endpoint: mean survival time, dose: 125.0 mg/kg/injection, schedule: Q01DX001 (ip), vehicle: other): 6 of 6
survivor count (T/C endpoint: mean survival time, dose: 187.0 mg/kg/injection, schedule: Q01DX001 (ip), vehicle: other): 0 of 6
survivor count (T/C endpoint: mean survival time, dose: 250.0 mg/kg/injection, schedule: Q01DX001 (ip), vehicle: other): 0 of 6
survivor count (T/C endpoint: mean survival time, dose: 375.0 mg/kg/injection, schedule: Q01DX001 (ip), vehicle: other): 0 of 6
survivor count (T/C endpoint: mean survival time, dose: 500.0 mg/kg/injection, schedule: Q01DX001 (ip), vehicle: other): 0 of 6
survivor count (T/C endpoint: mean survival time, dose: 750.0 mg/kg/injection, schedule: Q01DX001 (ip), vehicle: other): 0 of 6

CCC(N)C(O)C(Cl)(Cl)Cl (stereo not given)
survivor count [1]: 6 of 6
survivor count [2]: 4 of 6

Cc1ccc(CNC(=S)NC2CCCCC2)cc1C
survivor count [3]: 5 of 6
survivor count [4]: 1 of 6

Cc1ccc2nc(/C=C/c3ccc(N(C)C)cc3)cc(C)c2c1
survivor count (T/C endpoint: mean survival time, dose: 50.0 mg/kg/injection, schedule: Q01DX Z (ip), vehicle: carboxymethylcellulose (CMC)): 0 of 6

Cl/N=C(/c1ccccc1)c1ccc(Cl)cc1
survivor count (T/C endpoint: mean survival time, dose: 100.0 mg/kg/injection, schedule: Q01DX009 (ip), vehicle: Klucel (hydroxypropylcellulose) (HPC)): 6 of 6
survivor count [3]: 6 of 6
survivor count [4]: 5 of 6

NC(Cc1ccc(O)cc1)C(=O)CCl (stereo not given)
survivor count (T/C endpoint: mean survival time, dose: 100.0 mg/kg/injection, schedule: Q04DX002 (ip), vehicle: saline): 0 of 3

NNC(=O)CSSCC(=O)NN
survivor count (T/C endpoint: mean survival time, dose: 200.0 mg/kg/injection, schedule: Q04DX002 (ip), vehicle: Klucel (hydroxypropylcellulose) (HPC)): 0 of 3
survivor count (T/C endpoint: mean survival time, dose: 400.0 mg/kg/injection, schedule: Q04DX002 (ip), vehicle: Klucel (hydroxypropylcellulose) (HPC)): 0 of 3

N#CCCSc1ccccc1
survivor count (T/C endpoint: mean survival time, dose: 200.0 mg/kg/injection, schedule: Q01DX009 (ip), vehicle: saline with Tween-80): 1 of 3
survivor count [5]: 0 of 3
survivor count (T/C endpoint: mean survival time, dose: 400.0 mg/kg/injection, schedule: Q04DX002 (ip), vehicle: saline with Tween-80): 2 of 3

COc1cc(NCCCNc2c3ccc(Cl)cc3nc3ccc(OC)cc23)c2ncccc2c1
survivor count [3]: 4 of 6
survivor count [4]: 0 of 6

O=C1OC(C(O)CO)C(O)=C1O (stereo not given)
survivor count (T/C endpoint: mean survival time, dose: 16.0 mg/kg/injection, schedule: Q01DX009 (ip), vehicle: saline): 10 of 10
survivor count (T/C endpoint: mean survival time, dose: 32.0 mg/kg/injection, schedule: Q01DX009 (ip), vehicle: saline): 10 of 10
survivor count (T/C endpoint: mean survival time, dose: 400.0 mg/kg/injection, schedule: Q03HX024 (ip), vehicle: saline): 6 of 6
survivor count (T/C endpoint: mean survival time, dose: 600.0 mg/kg/injection, schedule: Q03HX024 (ip), vehicle: saline): 2 of 6
survivor count (T/C endpoint: mean survival time, dose: 800.0 mg/kg/injection, schedule: Q01DX009 (ip), vehicle: saline): 1 of 6
survivor count (T/C endpoint: mean survival time, dose: 1200.0 mg/kg/injection, schedule: Q01DX009 (ip), vehicle: saline): 1 of 6
survivor count (T/C endpoint: mean survival time, dose: 1600.0 mg/kg/injection, schedule: Q01DX005 (iv), vehicle: saline): 1 of 6
survivor count (T/C endpoint: mean survival time, dose: 1600.0 mg/kg/injection, schedule: Q01DX009 (ip), vehicle: saline): 0 of 6 and 2 of 6
survivor count (T/C endpoint: median survival time, dose: 2000.0 mg/kg/injection, schedule: Q01DX001 (ip), vehicle: water): 4 of 6
survivor count (T/C endpoint: median survival time, dose: 3000.0 mg/kg/injection, schedule: Q01DX001 (ip), vehicle: water): 2 of 6
survivor count (T/C endpoint: median survival time, dose: 4000.0 mg/kg/injection, schedule: Q01DX001 (oral), vehicle: water): 5 of 8

CC[N+](C)(C)CC(C)C
survivor count [6]: 1 of 6

CCCC(N)C(O)c1ccccc1 (stereo not given)
survivor count [6]: 2 of 6

Cc1ccc(N=NN(C)C)cc1
T/C (T/C endpoint: mean survival time, dose: 26.6 mg/kg/injection, schedule: Q01DX Z (ip), vehicle: methylcellulose (MC)): 135 % of control
T/C (T/C endpoint: mean survival time, dose: 40.0 mg/kg/injection, schedule: Q01DX Z (ip), vehicle: methylcellulose (MC)): 144 % of control
T/C (T/C endpoint: mean survival time, dose: 60.0 mg/kg/injection, schedule: Q01DX Z (ip), vehicle: methylcellulose (MC)): 139 and 142 % of control
T/C (T/C endpoint: mean survival time, dose: 90.0 mg/kg/injection, schedule: Q01DX Z (ip), vehicle: carboxymethylcellulose (CMC)): 136 % of control
T/C (T/C endpoint: mean survival time, dose: 90.0 mg/kg/injection, schedule: Q01DX Z (ip), vehicle: methylcellulose (MC)): 127 % of control
survivor count (T/C endpoint: mean survival time, dose: 125.0 mg/kg/injection, schedule: Q01DX001 (ip), vehicle: saline with Tween-80): 4 of 10
survivor count (T/C endpoint: mean survival time, dose: 250.0 mg/kg/injection, schedule: Q01DX001 (ip), vehicle: saline with Tween-80): 0 of 10
survivor count (T/C endpoint: mean survival time, dose: 360.0 mg/kg/injection, schedule: Q01DX Z (ip), vehicle: carboxymethylcellulose (CMC)): 0 of 6

Cc1cc(N(CCOS(C)(=O)=O)CCOS(C)(=O)=O)ccc1C=Nc1ccccc1C(=O)O
T/C (T/C endpoint: mean survival time, dose: 20.0 mg/kg/injection, schedule: Q04DX003 (ip), vehicle: Klucel (hydroxypropylcellulose) (HPC)): 126 % of control
survivor count (T/C endpoint: mean survival time, dose: 80.0 mg/kg/injection, schedule: Q04DX003 (ip), vehicle: Klucel (hydroxypropylcellulose) (HPC)): 6 of 6
survivor count (T/C endpoint: mean survival time, dose: 100.0 mg/kg/injection, schedule: Q04DX003 (ip), vehicle: Klucel (hydroxypropylcellulose) (HPC)): 6 of 6
survivor count (T/C endpoint: mean survival time, dose: 200.0 mg/kg/injection, schedule: Q04DX003 (ip), vehicle: Klucel (hydroxypropylcellulose) (HPC)): 5 of 6
survivor count (T/C endpoint: mean survival time, dose: 400.0 mg/kg/injection, schedule: Q04DX003 (ip), vehicle: Klucel (hydroxypropylcellulose) (HPC)): 1 of 6

CCNC(C)(C)C(O)c1ccc(Cl)s1 (stereo not given)
survivor count [5]: 0 of 6

COc1cc(NC(C)CCCN)c2nc(OCc3ccccc3)ccc2c1 (stereo not given)
survivor count (T/C endpoint: mean survival time, dose: 100.0 mg/kg/injection, schedule: Q04DX003 (ip), vehicle: saline with Tween-80): 1 of 6
survivor count [1]: 0 of 6
survivor count [2]: 0 of 6

CN(C)c1ccc(/C=C/C(=O)c2ccc([N+](=O)[O-])cc2)cc1
survivor count (T/C endpoint: mean survival time, dose: 25.0 mg/kg/injection, schedule: Q01DX009 (ip), vehicle: gum acacia): 6 of 6
survivor count (T/C endpoint: mean survival time, dose: 50.0 mg/kg/injection, schedule: Q01DX009 (ip), vehicle: gum acacia): 6 of 6
survivor count (T/C endpoint: mean survival time, dose: 200.0 mg/kg/injection, schedule: Q01DX009 (ip), vehicle: gum acacia): 6 of 6

COc1cc(C=Nc2cc(Br)c(O)c(Br)c2)ccc1N(CCCl)CCCl
T/C (T/C endpoint: mean survival time, dose: 9.6 mg/kg/injection, schedule: Q01DX009 (ip), vehicle: carboxymethylcellulose (CMC)): 132 % of control [4 of 6 alive]
T/C (T/C endpoint: mean survival time, dose: 14.6 mg/kg/injection, schedule: Q01DX001 (ip), vehicle: carboxymethylcellulose (CMC)): 126 % of control
T/C (T/C endpoint: mean survival time, dose: 22.0 mg/kg/injection, schedule: Q01DX001 (ip), vehicle: carboxymethylcellulose (CMC)): 132 % of control
T/C (T/C endpoint: mean survival time, dose: 33.0 mg/kg/injection, schedule: Q01DX001 (ip), vehicle: carboxymethylcellulose (CMC)): 135 % of control
survivor count (T/C endpoint: mean survival time, dose: 33.0 mg/kg/injection, schedule: Q01DX009 (ip), vehicle: carboxymethylcellulose (CMC)): 4 of 6
T/C (T/C endpoint: mean survival time, dose: 50.0 mg/kg/injection, schedule: Q01DX001 (ip), vehicle: carboxymethylcellulose (CMC)): 142 % of control [5 of 6 alive]
survivor count (T/C endpoint: mean survival time, dose: 50.0 mg/kg/injection, schedule: Q01DX009 (ip), vehicle: carboxymethylcellulose (CMC)): 0 of 6
survivor count (T/C endpoint: mean survival time, dose: 75.0 mg/kg/injection, schedule: Q01DX001 (ip), vehicle: carboxymethylcellulose (CMC)): 4 of 6
survivor count (T/C endpoint: mean survival time, dose: 100.0 mg/kg/injection, schedule: Q01DX001 (ip), vehicle: carboxymethylcellulose (CMC)): 0 of 4 and 1 of 4
survivor count (T/C endpoint: mean survival time, dose: 200.0 mg/kg/injection, schedule: Q01DX001 (ip), vehicle: carboxymethylcellulose (CMC)): 0 of 4
survivor count (T/C endpoint: mean survival time, dose: 400.0 mg/kg/injection, schedule: Q01DX001 (ip), vehicle: carboxymethylcellulose (CMC)): 0 of 4

O=C(NCc1ccccc1Cl)Nc1ccc(F)cc1
survivor count (T/C endpoint: mean survival time, dose: 200.0 mg/kg/injection, schedule: Q01DX009 (ip), vehicle: carboxymethylcellulose (CMC)): 1 of 3
survivor count (T/C endpoint: mean survival time, dose: 400.0 mg/kg/injection, schedule: Q04DX002 (ip), vehicle: carboxymethylcellulose (CMC)): 4 of 6 and 3 of 3
